The values below come from PubChem BioAssay AID2810 (NMMLSC, 2010).

The list shows a part of the results. Shown are side measurements of this screen, not its main read-out; they come without a call.

A short description of the assay: modulators of CD8 T cell-vesicle binding, confirmation, cherry-picked primary hits, two concentrations (AID 2810).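 For all read-outs here: lower values mean blocking of vesicle binding.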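 For percent response (vesicle binding): ratio of mean FL2 vesicle stain of CD8+ cells to that row's control.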 As to conditions: 2C CD8+ T cell-vesicle binding, flow cytometry; for double positive events: CD8+/vesicle+ events. A general note: In flow cytometry, cells or beads pass a laser one at a time.
[1] abbreviates: at 15.4 µM, stronger effect = lower value.

Take `O=S(=O)(Nc1ncccn1)c1ccc(Nc2ncnc3ccccc23)cc1`: for the setting “at 7.7 µM”, the double positive events came to 18% and the percent response (vesicle binding) was 245%. Under setting [1], the double positive events was determined as 31.8%.
In the same order, the values of `COC(=O)c1c(-c2ccc(OC)cc2)sc2ccccc12` are 7.4%, 75.9% and 23.3%.
For `Cn1c(CNC(=O)CNC(=O)c2ccc(F)cc2)cc(=O)n(C)c1=O` the same measures were 21.2%, 126% and 3.9%.
As to `CCOc1cc(CNC2CCCC2)cc(Cl)c1OCc1ccc(F)cc1`, for the setting “at 7.7 µM”, the double positive events stood at 33.6% and the percent response (vesicle binding) amounted to 242%. Moreover, the double positive events under setting [1] is 13.5%.
In the same order, the values of `CC(=O)N1CCN(C(=O)c2ccc(Cl)c(S(=O)(=O)N3CCc4ccccc43)c2)CC1` are 11.7%, 329% and 27.5%.
In the same order, the values of `CCCOc1ccc(CSc2n[nH]c(C)n2)cc1` are 14.2%, 371% and 22.2%.
For the compound `CC(=O)c1ccc(NC(=O)COC(=O)Cn2cnc3ccccc32)cc1`, where the note is “at 7.7 µM”, the double positive events was 25.1% and the percent response (vesicle binding) came to 198%. Under setting [1], the double positive events stood at 22.3%.
In the case of `Cc1cccc(N/N=C(\C(N)=O)C2=NC(C)(C)Cc3ccccc32)c1`, where the note is “at 7.7 µM”, the double positive events came to 23.5% and the percent response (vesicle binding) is 334%. The compound also showed a double positive events under setting [1] of 21%.
For `O=C(CN1C(=O)NC2(CCCCCC2)C1=O)N1CCN(c2ccccc2)CC1`, for the setting “at 7.7 µM”, the double positive events came to 15.7% and the percent response (vesicle binding) worked out at 166%. The compound further registered a double positive events under setting [1] of 28.4%.
In the same order, the values of `COc1ccc(-n2cc(CNCCc3cscn3)c(-c3ccccc3Cl)n2)cc1` are 18.3%, 241% and 36.4%.
For `CN(C)S(=O)(=O)c1ccc(N2CCCC2)c(C(=O)NCC(=O)Nc2ccc(F)c(F)c2)c1`, the double positive events amounted to 10.6% (at 7.7 µM) and 3.8% under setting [1]. The percent response (vesicle binding) (at 7.7 µM) is 382%.
For the compound `COc1ccc2c(c1)C1NC(=S)NC(C)(O2)C1C(=O)Nc1ccc(Cl)cc1` (configuration not stated), for the setting “at 7.7 µM”, the double positive events stood at 7.2% and the percent response (vesicle binding) was found to be 152%. Under setting [1], this compound returned a double positive events of 4.6%.
In the same order, the values of `CCOc1ccc2[nH]c(=O)c(CN(Cc3nnnn3Cc3ccccc3)CC3CCCO3)cc2c1` (configuration not stated) are 18.6%, 241% and 17.6%.
In the case of `COc1cccc(-n2c(CN3CCN(c4ccc(C)cc4)C(C)C3)nc3ccc([N+](=O)[O-])cc3c2=O)c1` (configuration not stated), for the setting “at 7.7 µM”, the double positive events is 5.4% and the percent response (vesicle binding) came to 71.2%. Moreover, the double positive events under setting [1] came to 10.8%.
For `Cc1nc(CNC(=O)C2CCC(=O)N(CCc3ccc(Cl)cc3)C2)sc1C` (configuration not stated), the double positive events runs as follows: (at 7.7 µM) 39.2%; under setting [1], 19.2%. The percent response (vesicle binding) (at 7.7 µM) was 389%.
In the same order, the values of `Cc1cc(Cl)c(OCCCN2CCCCC2)c(Br)c1` are 12%, 29.3% and 336%.
In the same order, the values of `Cc1ccc(C(=O)NC(=S)Nc2ccc(NC(=O)c3cccs3)cc2)cc1[N+](=O)[O-]` are 29.7%, 40.7% and 767%.
For `Cc1ccc2c(=O)n3c(nc2c1)C(Cc1ccccc1)NC(=O)c1cc(Cl)ccc1-3` (configuration not stated) the same measures were 8.1%, 24.3% and 320%.
For the setting “at 7.7 µM”, `CCN1CCN(c2ccc(S(=O)(=O)N3CCOCC3)cc2NC(=O)/C=C/c2ccc(C)cc2)CC1` showed a double positive events of 11.1% and a percent response (vesicle binding) of 161%. Under setting [1], this compound gave a double positive events of 30.4%.
Under “at 7.7 µM”, `CCN1CCCC1Cn1cnc2c([nH]c3ccc(C)cc32)c1=O` (configuration not stated) showed a double positive events of 17.8% and a percent response (vesicle binding) of 279%. This compound yielded a double positive events under setting [1] of 11.8%.
The compound `CCOCc1nnc(NC(=O)c2ccco2)s1` had a double positive events (at 7.7 µM) of 25.9% and a double positive events under setting [1] of 29.1%. Also, the percent response (vesicle binding) (at 7.7 µM) was 263%.
Regarding `CN1CCc2c(sc3c2c(NCc2ccco2)nc2nnnn23)C1`, under “at 7.7 µM”, the double positive events amounted to 11.2% and the percent response (vesicle binding) is 436%. Under setting [1], this compound had a double positive events of 44.3%.
As for `O=C(Cc1coc2cc(O)ccc12)NNC(=O)c1cccs1`, where the note is “at 7.7 µM”, the double positive events was determined as 14.7% and the percent response (vesicle binding) came to 184%. Under setting [1], this compound registered a double positive events of 27.5%.
Where the note is “at 7.7 µM”, `Cc1nc2ccc(Br)cc2c2c1CC(CBr)O2` (configuration not stated) had a double positive events of 27.3% and a percent response (vesicle binding) of 271%. Under setting [1], this compound yielded a double positive events of 16%.
For `Cc1ccc(NC(=O)c2ccccc2N(C)S(=O)(=O)c2ccccc2)c(C)c1` the same measures were 13%, 92.6% and 38.9%.
Consider `O=C(N/N=C/c1sc2ccccc2c1O)c1ccccc1`, for which the double positive events reads like this: (at 7.7 µM) 37.5%; under setting [1], 20.4%.
Turning to `COc1ccc2c(=O)c(C(=O)NCc3ccccc3)c[nH]c2c1`, under “at 7.7 µM”, the double positive events turned out to be 12.8% and the percent response (vesicle binding) was 145%. This compound displayed a double positive events under setting [1] of 15.9%.
In the same order, the values of `O=S(=O)(Nc1cccc(-c2cn3c(n2)SCC3)c1)c1ccc(F)cc1F` are 21.9%, 225% and 31.7%.
Under “at 7.7 µM”, `CS(=O)(=O)N(Cc1ccc(Cl)cc1)c1ccc(C(=O)NCCSc2ccccn2)cc1` displayed a double positive events of 31% and a percent response (vesicle binding) of 421%. Also, the double positive events under setting [1] turned out to be 23.1%.
Under “at 7.7 µM”, `C[C@@H]1CCC(=O)N(CC[C@H](Sc2ccc(Br)cc2)c2ccccc2)CC1` displayed a double positive events of 16.3% and a percent response (vesicle binding) of 330%. Under setting [1], this compound registered a double positive events of 9.5%.
For `O=C(NC1CCCCCC1)C1CCN(S(=O)(=O)c2ccccc2)CC1`, for the setting “at 7.7 µM”, the double positive events was 19% and the percent response (vesicle binding) was 151%. Further, the double positive events under setting [1] was 23.9%.
For `Cc1c(C)c2ccc(OCC(=O)N3CCC(C(=O)O)CC3)c(C)c2oc1=O` the same measures were 23.6%, 236% and 18.4%.
In the same order, the values of `O=C(COc1ccc(Br)cc1)N1CCN(c2ccc([N+](=O)[O-])c(N3CCCCC3)c2)CC1` are 7.4%, 93.1% and 12.6%.
In the same order, the values of `CN(c1ccccc1)S(=O)(=O)c1cccc(NC(=O)C2CCCO2)c1` (configuration not stated) are 8.5%, 343% and 12.6%.
In the case of `C/C(=N\NC(=O)CNC(=O)C(c1ccccc1)c1ccccc1)c1ccc(C)cc1`, for the setting “at 7.7 µM”, the double positive events was found to be 11.3% and the percent response (vesicle binding) is 408%. The compound further returned a double positive events under setting [1] of 18.9%.
In the same order, the values of `CCCC(=O)Nc1ccc(Cl)c(NC(=O)c2cccnc2)c1` are 38.7%, 286% and 30.5%.
Under “at 7.7 µM”, `CCOC(=O)c1c(NC(=O)CCl)sc(CN(C)C)c1-c1ccccc1` returned a double positive events of 20.1% and a percent response (vesicle binding) of 211%. The compound also returned a double positive events under setting [1] of 11.1%.
In the same order, the values of `O=C(NNC(=S)Nc1ccc(Br)cc1Cl)c1ccco1` are 15%, 253% and 40.7%.
For the compound `COc1ccc(OCCCC(=O)OCC(=O)Nc2sccc2C(N)=O)cc1`, where the note is “at 7.7 µM”, the double positive events came to 16.9% and the percent response (vesicle binding) came out at 145%. Besides, the double positive events under setting [1] stood at 36.8%.
`O=C(c1ccco1)N1CCN(C(=O)C2c3ccccc3Oc3ccccc32)CC1`: for the setting “at 7.7 µM”, the double positive events is 26.2% and the percent response (vesicle binding) stood at 415%. The same compound showed a double positive events under setting [1] of 26.8%.
For `COCCn1c(SCC(=O)Nc2ccc(C(C)=O)cc2)nc2c([nH]c3ccccc32)c1=O` the same measures were 16.1%, 394% and 34.4%.
